Results on one molecule are retold here after article PMC12794193.

Some targets named below: Flag-NLRP3-ΔLRR; Flag-NLRP3-ΔNACHT; Flag-NLRP3-ΔPYD.
Assay in all cases: co-IP; HEK293T cells co-transfected with tagged constructs; lysis in 25 mM tris-HCl pH 7.4, 150 mM NaCl, 1 mM EDTA, 1% NP-40, 5% glycerol; antibody (anti-Myc or anti-Flag) overnight at 4 °C, protein A/G magnetic beads 4 h; immunoblot; some panels with CQ (10 μM, 6 h), Myc-SENP6 overexpression or Senp6 knock-down
A general note: A western blot detects proteins with antibodies after separation by electrophoresis.

No constants are given. Whether binding was seen depends on the method and setting. Binding seen in cells or lysates may run through a third protein. For part of these data: A result given as binding can be weak or reduced; the word gives no strength. Sequences can lack the tags named with a protein.

B1: Myc-SENP6 (enzyme, UniProt Q9GZR1 1-1112)
chain: MAAGKSGGSAGEITFLEALARSESKRDGGFKNNWSFDHEEESEGDTDKDGTNLLSVDEDEDSETSKGKKLNRRSEIVANSSGEFILKTYVRRNKSESFKTLKGNPIGLNMLSNNKKLSENTQNTSLCSGTVVHGRRFHHAHAQIPVVKTAAQSSLDRKERKEYPPHVQKVEINPVRLSRLQGVERIMKKTEESESQVEPEIKRKVQQKRHCSTYQPTPPLSPASKKCLTHLEDLQRNCRQAITLNESTGPLLRTSIHQNSGGQKSQNTGLTTKKFYGNNVEKVPIDIIVNCDDSKHTYLQTNGKVILPGAKIPKITNLKERKTSLSDLNDPIILSSDDDDDNDRTNRRESISPQPADSACSSPAPSTGKVEAALNENTCRAERELRSIPEDSELNTVTLPRKARMKDQFGNSIINTPLKRRKVFSQEPPDALALSCQSSFDSVILNCRSIRVGTLFRLLIEPVIFCLDFIKIQLDEPDHDPVEIILNTSDLTKCEWCNVRKLPVVFLQAIPAVYQKLSIQLQMNKEDKVWNDCKGVNKLTNLEEQYIILIFQNGLDPPANMVFESIINEIGIKNNISNFFAKIPFEEANGRLVACTRTYEESIKGSCGQKENKIKTVSFESKIQLRSKQEFQFFDEEEETGENHTIFIGPVEKLIVYPPPPAKGGISVTNEDLHCLNEGEFLNDVIIDFYLKYLVLEKLKKEDADRIHIFSSFFYKRLNQRERRNHETTNLSIQQKRHGRVKTWTRHVDIFEKDFIFVPLNEAAHWFLAVVCFPGLEKPKYEPNPHYHENAVIQKCSTVEDSCISSSASEMESCSQNSSAKPVIKKMLNKKHCIAVIDSNPGQEESDPRYKRNICSVKYSVKKINHTASENEEFNKGESTSQKVADRTKSENGLQNESLSSTHHTDGLSKIRLNYSDESPEAGKMLEDELVDFSEDQDNQDDSSDDGFLADDNCSSEIGQWHLKPTICKQPCILLMDSLRGPSRSNVVKILREYLEVEWEVKKGSKRSFSKDVMKGSNPKVPQQNNFSDCGVYVLQYVESFFENPILSFELPMNLANWFPPPRMRTKREEIRNIILKLQEDQSKEKRKHKDTYSTEAPLGEGTEQYVNSISD
For B1, the binding entry is recorded as “binds” in the assay with Flag-NLRP3-ΔLRR, “no binding” with Flag-NLRP3-ΔNACHT and “binds” in the assay with Flag-NLRP3-ΔPYD.
